# Reference: the supplement of paper PMC3334620
# Over roughly 33,000 sequences, “E-score (-0.5 to 0.5)” has its median near -0.0059; the highest 2% begin near 0.26. Some of the results follow.
# Biological target: T1, Cin5 (UniProt P40917)
# T1 sequence: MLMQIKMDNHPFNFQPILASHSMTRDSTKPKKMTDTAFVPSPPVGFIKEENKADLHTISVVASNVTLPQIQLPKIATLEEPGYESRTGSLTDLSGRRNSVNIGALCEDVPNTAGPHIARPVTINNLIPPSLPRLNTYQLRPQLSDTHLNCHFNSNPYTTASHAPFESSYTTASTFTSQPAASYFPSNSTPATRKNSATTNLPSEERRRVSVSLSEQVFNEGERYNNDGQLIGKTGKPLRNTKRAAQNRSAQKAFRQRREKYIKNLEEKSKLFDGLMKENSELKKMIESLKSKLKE
# Test: PBM E-score (8-mer binding enrichment) (E-score (-0.5 to 0.5)); higher = stronger / more preferred TF binding
# Conditions: protein concentration: 100 nM; construct: GST-full length
# Method in brief: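 E-scores (a modified Wilcoxon-Mann-Whitney statistic) were assigned by the Universal PBM Analysis Suite to every ungapped eight-base word pooled with its reverse complement. The input came from universal all-10-mer Agilent arrays made double-stranded by primer extension and probed with GST-tagged yeast transcription factors at about 100-200 nM. Fluorescent anti-GST detected bound protein, and masliner normalised the scans.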
row,Sequence,PBM E-score
1,AACCCTGG,-0.199
2,AGTGGGTG,0.203
3,CATCCATC,0.0549
4,GCGTCGAC,0.14
5,GTTCTTGA,0.00403
6,CCGAGTGC,-0.0394
7,CCCTTACA,-0.0251
8,CATGTTCA,0.0492
9,AATCCTGA,0.0405
10,ATTAGTAA,0.387
11,ATCGTTCG,0.138
12,GAGCCCTA,-0.241
13,CGTATACA,0.0738
14,CACGAATC,0.11
15,CTATTCCC,-0.0521
16,ATTGGGAA,0.123
17,TGCTTTAA,0.0498
18,GCGGCCCA,-0.14
19,GACGTTCA,-0.156
20,CTACATTC,-0.121
21,GCCCGTCA,-0.209
22,GGAAAACC,-0.0807
23,CTGGAAAC,-0.0097
24,GCTACACA,-0.0357
25,AACGACTC,-0.221

row,Sequence,PBM E-score
1,CAGCGCGC,0.0616
2,ACCGGCAG,-0.285
3,CACTTCTG,-0.0536
4,CATTTTTA,0.00398
5,AGCTGCTA,-0.0218
6,CACTAATC,0.247
7,GCTACGAC,-0.125
8,AATGAATC,0.0194
9,TAGAGCCA,-0.133
10,CATGAGTC,0.0809
11,AGTGCGGG,0.0515
12,CATGCTCC,-0.188
13,AGAACAGA,0.0819
14,CTTTTGAC,-0.0394
15,CGACCAAG,-0.139
16,TGGAAAAA,0.0939
17,AGTACTAG,0.0248
18,TATCCGCA,0.254
19,GAGAATCA,0.0127
20,CATGGGGA,-0.0804
21,ATTCCAGA,-0.0448
22,GATGTCAA,0.0458
23,CGTTTGTA,0.108
24,GCCGTTTA,0.0611
25,CCTACGGA,-0.278

row,Sequence,PBM E-score
1,GAAGTGGC,-0.0739
2,CCGACATC,0.0711
3,ATGTTCAC,-0.0152
4,AGGCGCTG,-0.0381
5,CTCTTCAG,-0.13
6,ACAAGGAC,-0.111
7,CGTTATTA,0.133
8,CTCGTCTC,0.0845
9,AGACCTCC,-0.394
10,ACGTACGC,0.0141
11,CAAGCATC,-0.048
12,GTAAGTTA,0.0587
13,ATCTGGTA,0.141
14,TATATATA,0.369
15,ATGCATGG,0.16
16,AGGGAATA,0.211
17,CAGGTGCA,-0.111
18,GTGAGCAC,-0.0804
19,CAACATAA,0.286
20,CAAATCGG,-0.00957
21,AATGGGAC,0.00472
22,CACGATCG,0.0963
23,CGGGACCC,-0.332
24,ATTATGAC,0.197
25,CTTGAGGA,-0.184

row,Sequence,PBM E-score
1,CTTTGTTA,0.103
2,CACGCTCG,-0.0809
3,AGCGCCCC,-0.26
4,ACCCGTCA,-0.149
5,AGTGCAAA,0.188
6,AAATACAC,0.125
7,CAACTGCA,0.0357
8,CGATATAG,0.00737
9,CAGCTAGG,-0.216
10,CACGTCTG,-0.0659
11,ACGTCACA,0.063
12,CGGTGAAC,0.0137
13,GGGCGACC,-0.0987
14,GCGGAACA,0.121
15,ACATATGA,0.072
16,GTCGTCCA,0.0267
17,CGGACTCC,-0.126
18,AGGGTTAG,-0.0867
19,AAGACCGG,-0.194
20,CCTCAGGC,-0.109
21,ACCCTTAC,0.0619
22,CGATAAAA,0.0912
23,AACCTTGC,-0.00136
24,CTTTCAAC,0.0155
25,AAGCCAGC,-0.0231

row,Sequence,PBM E-score
1,CTTCTATC,-0.144
2,CCGGCCTA,-0.0459
3,CGTGGCTC,-0.295
4,ATGTGAGA,0.195
5,CAACCCTA,-0.0917
6,ATAGTCGC,0.0285
7,ATCATTAC,0.204
8,ATTACTCG,0.208
9,ATACTGTG,0.0593
10,CCTCGCCC,0.0221
11,CCGCATTC,0.00609
12,ACCACTCA,-0.0537
13,CGCGGCCA,-0.216
14,CATCCTCC,-0.217
15,GTAGCTTA,0.279
16,AATGGCTG,0.0434
17,AGAACTTG,0.0123
18,ACAAGAAC,0.178
19,CCGCCATC,-0.0364
20,TATCTACA,0.18
21,GAGGTAAC,-0.0118
22,ACGGGGCT,-0.13
23,CTAATCAG,0.14
24,GTTGATTA,0.268
25,CAGCACAA,-0.0395

# Reformatted: entries from further up
row | Sequence | PBM E-score
7 | CGTTATTA | 0.133
8 | CTCGTCTC | 0.0845
9 | AGACCTCC | -0.394
10 | ACGTACGC | 0.0141
11 | CAAGCATC | -0.048
12 | GTAAGTTA | 0.0587
13 | ATCTGGTA | 0.141
14 | TATATATA | 0.369
15 | ATGCATGG | 0.16
16 | AGGGAATA | 0.211
17 | CAGGTGCA | -0.111
18 | GTGAGCAC | -0.0804
19 | CAACATAA | 0.286
20 | CAAATCGG | -0.00957
21 | AATGGGAC | 0.00472
22 | CACGATCG | 0.0963
23 | CGGGACCC | -0.332
24 | ATTATGAC | 0.197
25 | CTTGAGGA | -0.184
1 | CTTTGTTA | 0.103
2 | CACGCTCG | -0.0809
3 | AGCGCCCC | -0.26
4 | ACCCGTCA | -0.149
5 | AGTGCAAA | 0.188
6 | AAATACAC | 0.125
7 | CAACTGCA | 0.0357
8 | CGATATAG | 0.00737
9 | CAGCTAGG | -0.216
10 | CACGTCTG | -0.0659
11 | ACGTCACA | 0.063
12 | CGGTGAAC | 0.0137
13 | GGGCGACC | -0.0987
14 | GCGGAACA | 0.121
15 | ACATATGA | 0.072
16 | GTCGTCCA | 0.0267
17 | CGGACTCC | -0.126
18 | AGGGTTAG | -0.0867
19 | AAGACCGG | -0.194
20 | CCTCAGGC | -0.109
21 | ACCCTTAC | 0.0619
22 | CGATAAAA | 0.0912
23 | AACCTTGC | -0.00136
24 | CTTTCAAC | 0.0155
25 | AAGCCAGC | -0.0231
1 | CTTCTATC | -0.144
2 | CCGGCCTA | -0.0459
3 | CGTGGCTC | -0.295
4 | ATGTGAGA | 0.195
5 | CAACCCTA | -0.0917
6 | ATAGTCGC | 0.0285
7 | ATCATTAC | 0.204
8 | ATTACTCG | 0.208
9 | ATACTGTG | 0.0593
10 | CCTCGCCC | 0.0221
11 | CCGCATTC | 0.00609
12 | ACCACTCA | -0.0537
13 | CGCGGCCA | -0.216
14 | CATCCTCC | -0.217
15 | GTAGCTTA | 0.279
16 | AATGGCTG | 0.0434
17 | AGAACTTG | 0.0123
18 | ACAAGAAC | 0.178
19 | CCGCCATC | -0.0364
20 | TATCTACA | 0.18
21 | GAGGTAAC | -0.0118
22 | ACGGGGCT | -0.13
23 | CTAATCAG | 0.14

# (listing goes on)

row,Sequence,PBM E-score
1,ACAGCGGA,0.052
2,AAGCGGGA,0.046
3,CCAACTGC,-0.043
4,CACCGAGA,0.00565
5,AACCGCAC,0.0806
6,CTCTACAA,-0.0634
7,GGGTCAGA,-0.276
8,AGATACAA,0.177
9,CACAATGG,0.104
10,CATCATTA,0.242
11,AGCGGCGG,-0.0102
12,AGCATATA,0.0988
13,GAGCATGC,-0.0912
14,CGCCCCAG,-0.125
15,CCTTGATC,-0.0761
16,ACATGAAG,-0.0435
17,ATTGCTTA,0.259
18,ACCAGAAT,0.0901
19,CTGTCGCA,-0.0934
20,ATAACGGC,0.0312
21,ACACATCG,-0.0963
22,CATAAACG,0.0174
23,CCACAGCG,-0.0604
24,GCCCGCCA,0.0033
25,GGCGTCAA,-0.0266

row,Sequence,PBM E-score
1,ACCCGCAT,0.193
2,ATTTTGTG,0.139
3,CAGCTTAG,0.0588
4,ATTTGCAC,0.122
5,CGTACATC,0.0537
6,ATGAGGGG,0.0909
7,ATACTCAC,0.117
8,GAGTAAGC,0.251
9,GATTAGAC,0.115
10,GCACATGC,-0.064
11,GGTGCTAC,-0.0898
12,AGCGGACC,-0.159
13,CCGGATTA,0.243
14,AACGAATC,0.0764
15,TACATGCA,0.12
16,ACTTTGCA,0.127
17,ACCGATCA,0.0485
18,CCAGCCTA,-0.0642
19,CCGTGTTC,0.21
20,TACTCAAA,0.0621
21,ATTGGTAC,0.0477
22,ACCCAACT,0.11
23,AATGCTCG,0.0601
24,CAAAAACA,-0.00679
25,AACCCCGC,0.0377

row,Sequence,PBM E-score
1,CAATAAAC,0.118
2,AATTGTTA,0.165
3,CCCTTCCA,-0.115
4,GATTGAAC,0.029
5,ACGATATC,0.105
6,ACATATCC,0.101
7,TAGATGCA,0.0348
8,GAGCCTCC,-0.2
9,ACTGTTCC,-0.0245
10,ACGAGAAA,0.174
11,AAGTCCCG,-0.0962
12,AAATTGTC,0.23
13,AGCTTTGC,-0.121
14,AAGTTAAT,0.105
15,ACGTTACA,0.13
16,AACAGCGG,0.0283
17,CGGGCTAG,-0.107
18,GGTGGAAC,-0.102
19,TCTCGAAA,-0.0342
20,CACTAGAG,-0.0745
21,AGTCGCGG,-0.267
22,TGCGGAAA,0.103
23,ACGGACGT,-0.108
24,GATGAGCA,0.104
25,CAATTGCA,-0.0549

row,Sequence,PBM E-score
1,AATAGAAA,0.0988
2,CACAAAGC,0.0138
3,GTCCGCAC,0.0555
4,ATGTGCGC,0.0703
5,CGGCTTCA,0.091
6,CAGTGGAG,0.0978
7,CGCTCGGC,-0.134
8,CCCGACCA,0.00921
9,AGGCGTAG,-0.174
10,ACAAGCAG,-0.0293
11,CACTTGCG,-0.0493
12,CCTCTCAA,-0.0128
13,GGTTCGAA,0.0786
14,CAGTGAGG,-0.185
15,CCACCTTC,-0.185
16,CCCCGCAA,0.116
17,AGAGTTTC,-0.285
18,GAACCCTA,-0.0872
19,CAGGAGTA,-0.0466
